Data source: PubChem BioAssay AID1259308 (NCATS, 2017)

Assay: 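Genes whose loss raises luciferase production in HEK293 cells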 (primary screen)
System: human HEK293 embryonic kidney cells stably expressing firefly luciferase (HEK-CMV-Luc2-Hygro)
Knock-down reagent: single siRNA against human genes, 0.8 pmol siRNA per well
Duration: 72 h
Measured: 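Luciferase light (ONE-Glo) measured on one replicate plate set and viability (CellTiter-Glo) on the other, scaled to a negative control siRNA, with robust z-scores and luciferase per cell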
Scale: total luciferase, z-score and total luciferase, % of control: higher = more reporter protein produced; luciferase per cell, z-score: higher = more reporter output per viable cell; viable cells, % of control: higher = more viable cells
Rule for the call: 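An siRNA counts as active if its total luciferase robust z-score exceeds 3; genes with two or more such siRNAs out of three were retested with fresh siRNAs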
Calls: active = raised luciferase; inactive = no rise
The deposit covers about 59,000 reagents; below is a part drawn at random. About 1,510 of all reagents (2.6%) count as active. 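Calls use total luciferase alone and ignore viability, so some active siRNAs may act by altering cell number.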 A number with no mark means an inactive call. The numbers tell different reagents against one gene apart. Reagent sequences are not shown.

target gene	reagent no.	total luciferase, z-score	total luciferase, % of control	luciferase per cell, z-score	viable cells, % of control
TFAP2C (transcription factor AP-2 gamma)	1	3.51 (active)	152	2.69	83.4
TFAP2C (transcription factor AP-2 gamma)	2	0.239	86.6	-0.369	107
TFAP2C (transcription factor AP-2 gamma)	3	0.3	87.8	-0.082	100
DAO (D-amino acid oxidase)	1	0.523	92.3	1.44	70.5
DAO (D-amino acid oxidase)	2	-0.627	69.4	-0.552	89.7
DAO (D-amino acid oxidase)	3	0.0284	82.5	-0.414	103
SLC7A9	1	-0.865	64.7	-0.896	91.5
SLC7A9	2	-0.0981	79.9	-0.657	106
SLC7A9	3	-1.46	52.9	-1.6	90.2
KIF12 (kinesin family member 12)	1	1.58	113	2.07	73.5
KIF12 (kinesin family member 12)	2	0.0815	83.5	-0.0626	94.9
KIF12 (kinesin family member 12)	3	-0.426	73.4	-0.811	102
ASB7 (ankyrin repeat and SOCS box containing 7)	1	0.0806	83.5	-0.015	93.7
ASB7 (ankyrin repeat and SOCS box containing 7)	2	0.14	84.7	0.377	85.7
ASB7 (ankyrin repeat and SOCS box containing 7)	3	0.686	95.5	0.252	99.9
ADAMTS8 (ADAM metallopeptidase with thrombospondin type 1 motif 8)	1	0.251	86.9	-0.126	100
ADAMTS8 (ADAM metallopeptidase with thrombospondin type 1 motif 8)	2	0.294	87.7	0.0713	96.2
ADAMTS8 (ADAM metallopeptidase with thrombospondin type 1 motif 8)	3	-0.659	68.8	-0.709	92.6
SCAP (SREBF chaperone)	1	0.113	84.1	-0.286	101
SCAP (SREBF chaperone)	2	0.413	90.1	0.467	89
SCAP (SREBF chaperone)	3	1.36	109	0.832	97.8
CCDC63 (coiled-coil domain containing 63)	1	1.17	105	0.947	91.6
CCDC63 (coiled-coil domain containing 63)	2	-0.465	72.6	-0.185	85.2
CCDC63 (coiled-coil domain containing 63)	3	0.341	88.7	-0.0713	101
RPS14 (ribosomal protein S14)	1	-2.77	26.8	-2.33	55.2
RPS14 (ribosomal protein S14)	2	-2.89	24.5	-2.73	56.2
RPS14 (ribosomal protein S14)	3	-3.16	19	-4	60.7
DNAJC27-AS1 (DNAJC27 antisense RNA 1)	1	0.476	91.4	0.707	84.7
DNAJC27-AS1 (DNAJC27 antisense RNA 1)	2	-0.568	70.6	0.164	75.5
DNAJC27-AS1 (DNAJC27 antisense RNA 1)	3	-0.881	64.4	-0.306	78
ACBD7 (acyl-CoA binding domain containing 7)	1	1.27	107	2.78	57.6
ACBD7 (acyl-CoA binding domain containing 7)	2	0.326	88.4	0.519	86.1
ACBD7 (acyl-CoA binding domain containing 7)	3	0.0707	83.3	-0.0434	94.1
PDE4A (phosphodiesterase 4A)	1	0.215	86.2	0.549	83.3
PDE4A (phosphodiesterase 4A)	2	-0.148	78.9	0.141	85
PDE4A (phosphodiesterase 4A)	3	-0.241	77.1	-0.16	89.9
FUT9 (fucosyltransferase 9)	1	-0.734	67.3	0.686	62.8
FUT9 (fucosyltransferase 9)	2	1.59	113	0.9	100
FUT9 (fucosyltransferase 9)	3	0.231	86.5	-0.146	100

5 of these entries in another layout.
target gene,reagent no.,"total luciferase, z-score","total luciferase, % of control","luciferase per cell, z-score","viable cells, % of control"
RPS14 (ribosomal protein S14),3,-3.16,19,-4,60.7
DNAJC27-AS1 (DNAJC27 antisense RNA 1),1,0.476,91.4,0.707,84.7
DNAJC27-AS1 (DNAJC27 antisense RNA 1),2,-0.568,70.6,0.164,75.5
DNAJC27-AS1 (DNAJC27 antisense RNA 1),3,-0.881,64.4,-0.306,78
ACBD7 (acyl-CoA binding domain containing 7),1,1.27,107,2.78,57.6
